The record followed here is PMC5974360.

These are yes or no findings as the source states them, for the method shown. In cells and extracts the contact can be indirect. Some entries that bind do so weakly or less than the wild type.

This assay concerns the target T1, Wnt7b (mouse (endogenous in fibrotic lung tissue)) (UniProt P28047).
T1 sequence: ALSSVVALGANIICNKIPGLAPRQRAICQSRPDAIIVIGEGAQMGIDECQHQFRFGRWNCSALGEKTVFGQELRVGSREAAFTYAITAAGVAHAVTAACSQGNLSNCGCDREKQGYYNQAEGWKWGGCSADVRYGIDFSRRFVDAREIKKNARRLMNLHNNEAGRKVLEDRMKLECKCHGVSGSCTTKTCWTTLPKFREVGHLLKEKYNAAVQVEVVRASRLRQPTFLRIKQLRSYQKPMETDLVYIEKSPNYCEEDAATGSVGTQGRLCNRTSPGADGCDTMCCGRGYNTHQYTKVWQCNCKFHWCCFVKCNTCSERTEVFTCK
In words: co-IP; Pierce Co-IP kit; Wnt7b or Wnt10a antibody immobilised on AminoLink Plus Coupling Resin, incubated with the lysate of mouse fibrotic lung tissues overnight; western blot.

B1: Fzd9 (receptor, UniProt Q9R216 24-592)
chain: LEIGRFDPERGRGPAPCQAMEIPMCRGIGYNLTRMPNLLGHTSQGEAAAQLAEFSPLVQYGCHSHLRFFLCSLYAPMCTDQVSTPIPACRPMCEQARLRCAPIMEQFNFGWPDSLDCARLPTRNDPHALCMEAPENATAGPTEPHKGLGMLPVAPRPARPPGDSAPGPGSGGTCDNPEKFQYVEKSRSCAPRCGPGVEVFWSRRDKDFALVWMAVWSALCFFSTAFTVFTFLLEPHRFQYPERPIIFLSMCYNVYSLAFLIRAVAGAQSVACDQEAGALYVIQEGLENTGCTLVFLLLYYFGMASSLWWVVLTLTWFLAAGKKWGHEAIEAHGSYFHMAAWGLPALKTIVVLTLRKVAGDELTGLCYVASMDPAALTGFVLVPLSCYLVLGTSFLLTGFVALFHIRKIMKTGGTNTEKLEKLMVKIGVFSILYTVPATCVIVCYVYERLNMDFWRLRATEQPCTAATVPGGRRDCSLPGGSVPTVAVFMLKIFMSLVVGITSGVWVWSSKTFQTWQSLCYRKMAAGRARAKACRTPGGYGRGTHCHYKAPTVVLHMTKTDPSLENPTHL
As for B1, the binding entry is reported as “no binding”.

B2: Fzd10 (receptor, UniProt Q8BKG4 22-582)
chain: ISSMDLERPGDGKCQPVEIPMCKDIGYNTTRMPNLMGHENQREAAIQLHEFAPLVEYGCHSHLRFFLCSLYAPMCTEQVSTPIPACRVMCEQARLKCSPIMEQFKFRWPDSLDCSKLPNKNDPNYLCMEAPNNGSDEPSRGSGMFPPLFRPQRPHSAQEHPLKDGGPGRAGCDNPGKFHHVEKSESCAPLCTPGVDVYWSRDDKRFAVVWLAIWSVLCFFSSAFTVLTFLIDPSRFRYPERPIIFLSMCYCVYSVGYIIRLFAGAESIACDRDSGQLYVIQEGLESTGCTLVFLVLYYFGMASSLWWVVLTLTWFLAAGKKWGHEAIEANSSYFHLAAWAIPAVKTILILVMRRVAGDELTGVCYVGSMDVNALTGFVLVPLACYLVIGTSFILSGFVALFHIRRVMKTGGENTDKLEKLMVRIGVFSLLYTVPATCVIACYFYERLNMDYWKMLATQHKCKMNNQTKTPDCLMTTSIPAVEVFMVKVSMLLVVGITSGVWVWTSKTLQSWQHVCSRGLKRKSRRKPASVVTSAGIYKKAQHPQKPHLGKYELPAQPSACV
Regarding B2, the binding result is given as “binds”.
